Reference: article PMC6796902
These are yes or no findings as the source states them, for the method shown. Binding seen in cells or lysates may run through a third protein. Some results given as binding are weak or reduced against the parent protein; the word gives no strength. Blank lines part the entries; values can stand above or below the molecule they belong to.

Chains of the proteins cited; added tags and fusions are not shown.
UniProt Q03164: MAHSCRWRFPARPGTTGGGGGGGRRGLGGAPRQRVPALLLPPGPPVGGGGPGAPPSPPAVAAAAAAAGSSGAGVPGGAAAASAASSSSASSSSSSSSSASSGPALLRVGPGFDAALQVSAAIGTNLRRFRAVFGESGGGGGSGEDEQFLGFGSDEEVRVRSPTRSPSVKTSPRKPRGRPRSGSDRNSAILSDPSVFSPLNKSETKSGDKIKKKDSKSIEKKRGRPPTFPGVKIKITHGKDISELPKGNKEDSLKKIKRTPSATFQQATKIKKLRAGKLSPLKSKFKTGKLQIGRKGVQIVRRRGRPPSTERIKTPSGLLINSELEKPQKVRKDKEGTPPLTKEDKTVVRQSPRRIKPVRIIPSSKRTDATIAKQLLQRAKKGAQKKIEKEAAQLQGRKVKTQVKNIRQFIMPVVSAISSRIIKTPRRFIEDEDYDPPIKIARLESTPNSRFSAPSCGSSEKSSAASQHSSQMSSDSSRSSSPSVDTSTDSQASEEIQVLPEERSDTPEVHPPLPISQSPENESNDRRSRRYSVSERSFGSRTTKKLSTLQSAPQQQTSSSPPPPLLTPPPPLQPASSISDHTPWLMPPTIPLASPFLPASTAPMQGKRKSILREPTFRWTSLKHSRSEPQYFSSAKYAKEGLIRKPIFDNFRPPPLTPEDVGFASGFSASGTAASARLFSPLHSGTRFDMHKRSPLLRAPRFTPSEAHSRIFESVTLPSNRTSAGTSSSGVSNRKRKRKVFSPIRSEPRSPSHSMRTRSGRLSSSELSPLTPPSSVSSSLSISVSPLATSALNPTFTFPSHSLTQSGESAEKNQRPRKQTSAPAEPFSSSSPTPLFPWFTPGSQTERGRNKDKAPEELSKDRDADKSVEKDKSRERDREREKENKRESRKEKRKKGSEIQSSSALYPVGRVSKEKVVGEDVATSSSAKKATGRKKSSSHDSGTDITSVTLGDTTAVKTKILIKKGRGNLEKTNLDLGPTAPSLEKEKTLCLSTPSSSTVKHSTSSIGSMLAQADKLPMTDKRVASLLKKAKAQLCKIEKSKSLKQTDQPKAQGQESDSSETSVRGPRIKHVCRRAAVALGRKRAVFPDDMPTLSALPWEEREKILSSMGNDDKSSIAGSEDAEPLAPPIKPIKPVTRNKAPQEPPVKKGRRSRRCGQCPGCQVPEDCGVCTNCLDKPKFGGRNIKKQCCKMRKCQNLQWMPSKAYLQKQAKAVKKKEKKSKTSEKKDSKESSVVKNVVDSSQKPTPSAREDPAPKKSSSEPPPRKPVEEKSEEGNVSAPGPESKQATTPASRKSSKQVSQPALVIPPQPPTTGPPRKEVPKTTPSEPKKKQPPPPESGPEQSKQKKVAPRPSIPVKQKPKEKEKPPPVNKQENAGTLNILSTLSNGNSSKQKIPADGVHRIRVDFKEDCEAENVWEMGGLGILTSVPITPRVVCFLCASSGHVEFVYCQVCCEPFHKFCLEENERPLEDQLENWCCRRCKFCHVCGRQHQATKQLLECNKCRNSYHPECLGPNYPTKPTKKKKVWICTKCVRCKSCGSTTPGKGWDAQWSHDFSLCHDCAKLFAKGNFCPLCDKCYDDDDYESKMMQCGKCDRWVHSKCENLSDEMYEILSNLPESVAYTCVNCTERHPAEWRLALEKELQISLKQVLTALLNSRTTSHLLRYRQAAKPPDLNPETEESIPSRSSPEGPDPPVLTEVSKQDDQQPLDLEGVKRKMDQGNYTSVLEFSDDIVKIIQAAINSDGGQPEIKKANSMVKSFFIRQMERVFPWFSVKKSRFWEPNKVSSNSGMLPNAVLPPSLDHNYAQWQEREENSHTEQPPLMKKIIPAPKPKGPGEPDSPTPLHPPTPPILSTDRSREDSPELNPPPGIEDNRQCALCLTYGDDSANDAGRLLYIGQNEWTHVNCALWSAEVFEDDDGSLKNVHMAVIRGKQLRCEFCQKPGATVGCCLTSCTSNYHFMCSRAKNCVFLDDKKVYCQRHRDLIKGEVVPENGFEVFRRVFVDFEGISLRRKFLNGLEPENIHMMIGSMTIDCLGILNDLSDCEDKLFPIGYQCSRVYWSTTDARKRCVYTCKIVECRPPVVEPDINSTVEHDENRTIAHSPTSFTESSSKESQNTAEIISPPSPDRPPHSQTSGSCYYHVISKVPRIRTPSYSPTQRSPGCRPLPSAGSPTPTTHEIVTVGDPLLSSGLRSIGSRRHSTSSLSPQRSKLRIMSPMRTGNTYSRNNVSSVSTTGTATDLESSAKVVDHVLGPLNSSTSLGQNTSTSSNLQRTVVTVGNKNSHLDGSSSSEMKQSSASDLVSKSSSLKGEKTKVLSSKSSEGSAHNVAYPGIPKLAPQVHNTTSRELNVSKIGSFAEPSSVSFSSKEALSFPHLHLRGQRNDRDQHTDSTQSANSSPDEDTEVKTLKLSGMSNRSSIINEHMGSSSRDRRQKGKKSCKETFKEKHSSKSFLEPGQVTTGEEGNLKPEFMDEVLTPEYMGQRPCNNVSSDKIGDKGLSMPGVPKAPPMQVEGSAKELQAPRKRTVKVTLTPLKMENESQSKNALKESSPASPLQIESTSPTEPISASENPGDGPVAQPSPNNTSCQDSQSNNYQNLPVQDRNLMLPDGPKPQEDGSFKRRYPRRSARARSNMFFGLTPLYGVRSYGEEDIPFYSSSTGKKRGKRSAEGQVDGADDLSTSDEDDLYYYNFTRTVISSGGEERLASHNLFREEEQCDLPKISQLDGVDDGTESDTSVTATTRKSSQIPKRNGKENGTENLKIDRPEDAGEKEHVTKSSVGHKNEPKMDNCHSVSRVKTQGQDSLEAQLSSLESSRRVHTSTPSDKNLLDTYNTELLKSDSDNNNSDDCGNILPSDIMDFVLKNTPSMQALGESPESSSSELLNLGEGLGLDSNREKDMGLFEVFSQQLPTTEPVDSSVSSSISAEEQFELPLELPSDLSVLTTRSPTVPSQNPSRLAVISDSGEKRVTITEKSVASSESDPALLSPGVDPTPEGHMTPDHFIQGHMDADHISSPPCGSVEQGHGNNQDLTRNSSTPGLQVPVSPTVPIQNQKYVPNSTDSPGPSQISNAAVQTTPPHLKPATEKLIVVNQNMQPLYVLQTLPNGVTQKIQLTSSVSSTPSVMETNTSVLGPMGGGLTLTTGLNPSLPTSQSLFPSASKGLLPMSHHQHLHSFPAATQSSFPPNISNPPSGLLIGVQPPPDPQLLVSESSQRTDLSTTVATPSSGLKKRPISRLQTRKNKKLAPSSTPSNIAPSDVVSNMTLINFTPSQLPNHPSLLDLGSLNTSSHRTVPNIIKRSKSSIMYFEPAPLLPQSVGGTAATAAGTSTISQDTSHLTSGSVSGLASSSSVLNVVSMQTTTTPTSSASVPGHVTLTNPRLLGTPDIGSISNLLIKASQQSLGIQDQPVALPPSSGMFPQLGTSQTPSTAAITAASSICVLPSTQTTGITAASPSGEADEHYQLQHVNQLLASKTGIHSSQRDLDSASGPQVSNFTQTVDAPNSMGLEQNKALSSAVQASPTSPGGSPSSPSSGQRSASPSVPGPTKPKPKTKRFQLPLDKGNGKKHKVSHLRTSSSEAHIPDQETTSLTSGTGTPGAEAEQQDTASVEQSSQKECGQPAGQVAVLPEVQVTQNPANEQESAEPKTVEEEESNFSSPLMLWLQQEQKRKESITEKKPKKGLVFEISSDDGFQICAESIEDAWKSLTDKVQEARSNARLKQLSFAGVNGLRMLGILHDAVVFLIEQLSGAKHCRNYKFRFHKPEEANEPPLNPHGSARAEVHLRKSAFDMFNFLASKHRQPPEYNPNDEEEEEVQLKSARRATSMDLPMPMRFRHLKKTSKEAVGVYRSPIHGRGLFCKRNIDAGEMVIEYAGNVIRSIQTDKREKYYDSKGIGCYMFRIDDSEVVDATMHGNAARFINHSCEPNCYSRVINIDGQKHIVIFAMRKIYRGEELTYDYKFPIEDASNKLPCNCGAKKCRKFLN
UniProt P67809: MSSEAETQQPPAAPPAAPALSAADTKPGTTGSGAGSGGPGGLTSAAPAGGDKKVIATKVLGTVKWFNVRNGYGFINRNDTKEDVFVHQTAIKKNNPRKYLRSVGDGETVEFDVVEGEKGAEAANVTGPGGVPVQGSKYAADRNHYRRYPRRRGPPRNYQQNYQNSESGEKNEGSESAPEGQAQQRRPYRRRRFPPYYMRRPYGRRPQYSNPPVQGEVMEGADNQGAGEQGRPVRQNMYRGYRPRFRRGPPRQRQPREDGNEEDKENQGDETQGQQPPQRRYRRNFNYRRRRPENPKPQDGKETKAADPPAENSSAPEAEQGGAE

Columns and labels:
[1] = target: mixed-lineage leukemia (MLL) protein (human (endogenous in 293T)) (UniProt Q03164); test: co-IP; total lysates of 293T cells, immunoprecipitation with anti-MLL antibodies, immunoblots of copurified endogenous proteins
[2] = target: Mll (mouse mixed-lineage leukemia protein), endogenous in MEF cells (mouse (endogenous in MEF)) (UniProt P55200); test: co-IP; total lysate of MEF cells, anti-Mll antibody with Dynabeads protein G at 4 °C overnight, 4 washes in lysis buffer, immunoblot; IgG as control (Supplementary Fig. S1a; untreated lanes of Fig. S2f; Dcp1a and Edc3 also after RNase A)
[3] = target: MLL (human mixed-lineage leukemia protein), endogenous in the cytosolic fraction of 293T cells (human (endogenous in 293T)) (UniProt Q03164); test: co-IP; cytosolic fraction of 293T cells (NE-PER kit), anti-MLL antibody with Dynabeads protein G, immunoblot (Supplementary Fig. S1b)
[4] = target: mixed-lineage leukemia (MLL) protein (human (endogenous in 293T)) (UniProt Q03164); test: co-IP; cytoplasm (Supplementary Fig. S1b; details not shown)
[5] = target: mixed-lineage leukemia (MLL) protein (human (endogenous in 293T)) (UniProt Q03164); test: co-IP; total lysates of 293T cells, immunoprecipitation with anti-MLL antibodies, immunoblots of copurified endogenous proteins; remark: listed apart in the source
[6] = target: mixed-lineage leukemia (MLL) protein (human (endogenous in 293T)) (UniProt Q03164); test: co-IP; 293T cell lysates treated with RNase A, then anti-MLL immunoprecipitation and western blots

- binding [1]: binds
Molecule: YB-1 (from UniProt P67809 1-324)

- binding [2]: binds
B1: Edc3 (mouse), endogenous in MEF cells (protein, UniProt Q8K2D3 1-508)
chain: MAMDWLGSIVSINCGDSLGVYQGRVSAVDQVSQTISLTRPFHNGVKCLVPEVTFRAGDITELKILEIPGPGDNQQVGDLHQTELGPSGVGYQMSISQNGTGKVVKKPASSSSAPQSIPKRTDVKSQDVAISPQQQQCSKSYVDRHMESLSQSKSFRRRHNSWSSSSRHPNQATPKKSGLKNGQMKNKDDECFGDDIEELPDTDFDFEGNLALFDKAAVFEEIDTYERRSGSRSRGVPNERPARYRHDENILESEPIVYRRITVPHSVSKEFCTDSGLVVPSVSYELHKKLLSVAEKHGLTLERRLEMTGVCASQMALTLLGGPNRLNPKNVHQRPTVALLCGPHVKGAQGISCGRHLANHDVQVILFLPNFVKMLESITNELSLFSKTQGQQVSSLRDLPASPVDLVINCLDCPENAFLRDQPWYKAAVAWANQNRAPVLSIDPPVHEVEQGIDAKWSLALGLPLPLGEHAGRVYLCDIGIPQQVFQEVGINYHSPFGCKFVIPLHSA

- binding [3]: binds
B3: EDC4 (human), endogenous in 293T cells (protein, UniProt Q6P2E9 1-1401)
chain: MASCASIDIEDATQHLRDILKLDRPAGGPSAESPRPSSAYNGDLNGLLVPDPLCSGDSTSANKTGLRTMPPINLQEKQVICLSGDDSSTCIGILAKEVEIVASSDSSISSKARGSNKVKIQPVAKYDWEQKYYYGNLIAVSNSFLAYAIRAANNGSAMVRVISVSTSERTLLKGFTGSVADLAFAHLNSPQLACLDEAGNLFVWRLALVNGKIQEEILVHIRQPEGTPLNHFRRIIWCPFIPEESEDCCEESSPTVALLHEDRAEVWDLDMLRSSHSTWPVDVSQIKQGFIVVKGHSTCLSEGALSPDGTVLATASHDGYVKFWQIYIEGQDEPRCLHEWKPHDGRPLSCLLFCDNHKKQDPDVPFWRFLITGADQNRELKMWCTVSWTCLQTIRFSPDIFSSVSVPPSLKVCLDLSAEYLILSDVQRKVLYVMELLQNQEEGHACFSSISEFLLTHPVLSFGIQVVSRCRLRHTEVLPAEEENDSLGADGTHGAGAMESAAGVLIKLFCVHTKALQDVQIRFQPQLNPDVVAPLPTHTAHEDFTFGESRPELGSEGLGSAAHGSQPDLRRIVELPAPADFLSLSSETKPKLMTPDAFMTPSASLQQITASPSSSSSGSSSSSSSSSSSLTAVSAMSSTSAVDPSLTRPPEELTLSPKLQLDGSLTMSSSGSLQASPRGLLPGLLPAPADKLTPKGPGQVPTATSALSLELQEVEPLGLPQASPSRTRSPDVISSASTALSQDIPEIASEALSRGFGSSAPEGLEPDSMASAASALHLLSPRPRPGPELGPQLGLDGGPGDGDRHNTPSLLEAALTQEASTPDSQVWPTAPDITRETCSTLAESPRNGLQEKHKSLAFHRPPYHLLQQRDSQDASAEQSDHDDEVASLASASGGFGTKVPAPRLPAKDWKTKGSPRTSPKLKRKSKKDDGDAAMGSRLTEHQVAEPPEDWPALIWQQQRELAELRHSQEELLQRLCTQLEGLQSTVTGHVERALETRHEQEQRRLERALAEGQQRGGQLQEQLTQQLSQALSSAVAGRLERSIRDEIKKTVPPCVSRSLEPMAGQLSNSVATKLTAVEGSMKENISKLLKSKNLTDAIARAAADTLQGPMQAAYREAFQSVVLPAFEKSCQAMFQQINDSFRLGTQEYLQQLESHMKSRKAREQEAREPVLAQLRGLVSTLQSATEQMAATVAGSVRAEVQHQLHVAVGSLQESILAQVQRIVKGEVSVALKEQQAAVTSSIMQAMRSAAGTPVPSAHLDCQAQQAHILQLLQQGHLNQAFQQALTAADLNLVLYVCETVDPAQVFGQPPCPLSQPVLLSLIQQLASDLGTRTDLKLSYLEEAVMHLDHSDPITRDHMGSVMAQVRQKLFQFLQAEPHNSLGKAARRLSLMLHGLVTPSLP

- binding [4]: binds
- binding [5]: binds
B4: EDC4 (protein, UniProt Q6P2E9 1-1401)
chain: B3 chain

Continued, molecule first:

B2: Dcp1a (mouse), endogenous in MEF cells (protein, UniProt Q91YD3 1-602)
chain: MALSCSTVRPRRRGSALRSKMELLSRAEQEMSLAALKQHDPYITSIADLTGQVALYTFCPKANQWEKTDIEGTLFVYRRSASPYHGFTIVNRLNMHNLVEPVNKDLEFQLHEPFLLYRNASLSIYSIWFYDKNDCHRIAKLMADVVEEETRRSQQAARDKQSPSQANGCSDQRPIDILEMLSRAKDEYERNQMGGSNISSPGLQPSTQLSNLGSTETLEETPSGSQDKSAPSGHKHLTVEELFGTSLPKEQPTAMGLESEDTDKLLGDASQKEPSSFLPFPFEQSGGAPQSENLGIHSAAHHTVQPEVSTPVLITPASIAQSGDKHPPSYTLPLSPVLSPTLPAEAPTTQVPHLPRNSTMIQAVKTTPRQKSPLLNQPVPELSHSSLVASQSPFRAPVSLANPAGTALPSVDLLQKLRLTPQHDQIQAQPLGKGTMAPSFSSAAGQLATPESFIEPSSKTAAARAAVSASLSNMVLAPTLQSMQQNQDPEVFSQPKVLPSAIPIAGSPLVPATTTAVSSVLLSPSVFQQTVPRAADLERKASSPSPLTVGTAESQRKPSIILSKSQLQDTLIHLIKNDSSFLSTLHAVYLQVLTKNKDNHNL
- binding [2]: binds

B5: EDC3 (human), endogenous in 293T cells (protein, UniProt Q96F86 1-508)
chain: MATDWLGSIVSINCGDSLGVYQGRVSAVDQVSQTISLTRPFHNGVKCLVPEVTFRAGDITELKILEIPGPGDNQHFGDLHQTELGPSGAGCQVGINQNGTGKFVKKPASSSSAPQNIPKRTDVKSQDVAVSPQQQQCSKSYVDRHMESLSQSKSFRRRHNSWSSSSRHPNQATPKKSGLKNGQMKNKDDECFGDDIEEIPDTDFDFEGNLALFDKAAVFEEIDTYERRSGTRSRGIPNERPTRYRHDENILESEPIVYRRIIVPHNVSKEFCTDSGLVVPSISYELHKKLLSVAEKHGLTLERRLEMTGVCASQMALTLLGGPNRLNPKNVHQRPTVALLCGPHVKGAQGISCGRHLANHDVQVILFLPNFVKMLESITNELSLFSKTQGQQVSSLKDLPTSPVDLVINCLDCPENVFLRDQPWYKAAVAWANQNRAPVLSIDPPVHEVEQGIDAKWSLALGLPLPLGEHAGRIYLCDIGIPQQVFQEVGINYHSPFGCKFVIPLHSA
- binding [3]: binds

B6: EDC3 (protein, UniProt Q96F86 1-508)
chain: B5 chain
- binding [6]: binds
- binding [4]: binds
- binding [5]: binds
